Most of the hits are listed elsewhere, so they are rarer here than in the full data. Records with an inconclusive call do not appear. Active and inactive are the calls of the source. The call rests on the fitted dose curve; in most records, active means well fitted inhibition curve with a large enough effect; inconclusive means small, poorly fitted or top-dose-only effect; inactive means no such curve, though single readings can be large or run the other way.

This experiment can be described thus: qHTS for Inhibitors of TGF-b: Hit Validation in HepG2 Cells using COP promoter.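 Further: 0% = TGF-beta stimulated DMSO wells and -100% = unstimulated cell wells; nearly all actives have a fitted effect of over 70% in size.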 The conditions noted are these: HepG2 COP-GFP TGF-b reporter, GFP fluorescence, 18 h, cells stimulated by added recombinant TGF-beta; at 46.1 µM (top of the series). The source says: TGF-b is a main component in the TGF-b signaling pathway which plays diverse roles in cellular and development pathways. TGF-b is the mediated by the transcription factors Smads. Although the Smad-dependent pathway is the primary canonical TGF-b signaling node, TGF-b1 can also activate alternative signaling pathways, including those involving MAPK (ERK, JNK and p38). This interaction may mediate or enhance Smad-dependent responses, or can exert Smad-independent effects. The complexity of this signaling cascade allows the TGF-b superfamily to perform unique, overlapping or redundant functions. […] We aim to identify Smad3-small molecule antagonists using a quantitative high throughput screening (qHTS) approach. […]
Suspensions of trypsinized HEPG2 COP-GFP cells were dispensed into white, tissue culture-treated, solid 1536-well plates at 5uL/well (1000 cells/well final concentration) in DMEM medium supplemented with 1% FBS. […] The plates were measured on an Acumen eX3 Explorer plate reader for GFP fluorescence (ex488/em500-530). GFP values were calculated by determining the mean GFP fluorescence of individual cells, and compiling these values for each well to determine a total well GFP signal. The %Activity was determined from the corrected fluorescence values. […] Concentration-response curves were fitted to the signals arising from the resulting fluorescence. […]
(In general: qHTS replaces the single test concentration by a dilution series.)
For `COc1cc2c(c(OC)c1OC)-c1ccc(OC)c(=O)cc1C(N)CC2` (stereo unspecified), the activity, negative = inhibition is inactive: -22%.
